The assay deals with N-myristoylated HIV-1 Nef protein (isolate SF2) (HIV-1 isolate SF2) (UniProt P03407). Kind of assay: SEC; preparative HiLoad 16/60 Superdex 75, 20 mM Tris-HCl pH 8.0, 150 mM NaCl, 15 mM β-mercaptoethanol, 10°C, 1 ml/min; final purification step; sizes estimated from a calibration with low molecular weight proteins; both purified.

Sequences of proteins named here, by UniProt entry; tags and fusion partners are left off. Residues count along the entry.
UniProt P03407, residues 2-210: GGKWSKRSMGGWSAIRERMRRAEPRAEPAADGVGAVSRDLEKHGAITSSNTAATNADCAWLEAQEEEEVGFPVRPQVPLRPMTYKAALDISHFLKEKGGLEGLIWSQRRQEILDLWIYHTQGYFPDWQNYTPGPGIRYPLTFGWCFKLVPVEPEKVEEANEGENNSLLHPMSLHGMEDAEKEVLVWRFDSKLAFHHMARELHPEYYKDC

No constants are given. Whether binding was seen depends on the method and setting.

“N-myristoylated HIV-1 Nef protein (isolate SF2) (from UniProt P03407 2-210)”: the binding entry is “no binding”.
